The values are deposited in ChEMBL (CHEMBL3988442, “University of Dundee, Small-Polar-MMV Screening Library” (2021)).

Each number is a percent effect as filed.
How 0% and 100% were set is not recorded. Most values in the screen are low, and negative values occur.
The compounds are a random part of those screened.
Two or more numbers in one place are separate tests of the same structure; such repeats can differ widely.

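Viability assay of Plasmodium falciparum sporozoites; the read-out is not stated. The concentration is filed as 10 mM, unlikely as a test dose, so the dose is not known. Higher reads as lower viability (inferred: compounds with an IC50 in retests scored well above the rest). Strong results were mostly tested again. Size under these conditions: about 34,000 compounds, about 280 of them at 50% or above in at least one test.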

- CCc1noc(CN(CC)Cc2cc3cc(C)ccc3[nH]c2=O)n1 | -10%
- CCc1ccc(OCC(O)CN2CCN(CC)CC2)cc1 (configuration not stated) | -0.7823%
- O=C(O)C(F)(F)F.O=C(O)C(F)(F)F.[H][C@@]12COC[C@]1([H])[C@@H](OCCN(C)C)CN2Cc1ccc(C)o1 | 7.62%
- O=C(O)c1cc(S(=O)(=O)Nc2cc(Cl)ccc2F)cc2c1OCCO2 | -1.413%
- O=C(NCCNc1ncccn1)c1ccc(OCc2ccccc2)nc1 | -24.7%
- Cc1cn[nH]c1C1COCCN1Cc1c[nH]cn1 (configuration not stated) | -8.662%
- CCOc1cccc2c1OCC(C(=O)NS(=O)(=O)c1c(C)noc1C)=C2 | -1.912%
- Oc1cc(-c2ccsc2)nc(C2CCN(Cc3ccncc3)CC2)n1 | 1.614%
- O=C(O)C(F)(F)F.[H][C@]12C[C@H](C(=O)NC)N(S(C)(=O)=O)[C@@]1([H])CN(C(=O)c1ccccn1)C2 | -2.53%
- COCCN1CCC2(CC1)CC(c1cccnc1)CO2.O=C(O)C(F)(F)F (configuration not stated) | 19.91%
- O=C(CC1CC1)N1CCC2(COCc3cnc(-c4cccnc4)nc32)C1 (configuration not stated) | 10.45%
- Cl.Cn1nc(C2CCN(C(=O)Cc3ccsc3)CC2)c2cccnc21 | -0.458%
- CCn1cnnc1CNC(=O)NC(C)C(C)C (configuration not stated) | -6.378%
- Cc1nccn1-c1cc(CNC(=O)c2ccccn2)ccn1 | -2.479%
- CC(C)c1nccn1C1CCCN(C(=O)c2ccc3c(c2)COC3)C1 (configuration not stated) | 7.581%
- Cc1nc(C)n(CC2CN(Cc3cccc(C(N)=O)c3)CCO2)n1 (configuration not stated) | -7.215%
- CC[C@H](N)C(=O)Nc1nn(CC(F)(F)F)c2cc(OC(C)C)ccc12 | -8.204% & -6.261%
- COc1cc(C(=O)N(Cc2cnn(C)c2)C(C)C)ccc1OCC(N)=O | 5.297%
- COCCS(=O)(=O)NC(C)c1ccc(-n2nc(C)cc2C)cc1 (configuration not stated) | 0.3337%
- Cc1c[nH]nc1C1CCN(S(=O)(=O)N(C)C)C1 (configuration not stated) | 14.27%
- CCc1n[nH]c(C2CN(CC(=O)N(C)Cc3ccco3)CCO2)n1 (configuration not stated) | 1.065%
- CC(C)NC(=O)Nc1ccc(CNCc2cccc(OC(F)F)c2)cc1 | 16%
- Cc1nc(C)n(CC2CCCN2Cc2nnc(-c3ccco3)o2)n1 (configuration not stated) | 10.29%
- CCCC(=O)N1CCC(Nc2nc(O)cc(-c3ccsc3)n2)CC1 | 4.439%